Measured values taken from PubChem BioAssay AID1508600 (Functional Genomics Laboratory (NCATS/FGL), 2020).
Among all 53,000 sequences or so, about 3,700 (7%) were called active.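 Rule for the calls: active = gene knockdowns whose robust z-score for IL-1 alpha signal is at least 2 or at most -2, so actives lie on both sides; inactive = the rest.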 The list shows a part of the results.

Experiment: Components of the Cytosolic LPS Sensing Pathway: Gene Identification via Genome-wide siRNA Screen;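 note: robust z of the log signal after scaling to non-targeting control siRNA wells of the plate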
Settings: RAW264.7 macrophages, IL-1a HTRF, actives lie on both sides, screened at 100 nM (by protocol), cells primed 5 h with Pam3CSK4 first
Summary of the method: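 Using IL-1a HTRF as read-out, the screen measured release from RAW264.7 cells after 48h siRNA knockdown (100 nM), 5 h Pam3CSK4 priming and 24 h cytosolic LipidA. Values were expressed relative to negative-control wells as robust z-scores.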

z-score, inactive:
CCCGGGAUACCACUUAUGUTT against Aen 0.0179
CCUUUCUUCCUAGUUCUUCTT against Olfr38 -0.398
GGCACGACUACAUAUUUAATT against Wdfy3 1.12
GCAUUUGAAAUAUUCGCUATT against Hyal5 0.293
GCAGCAUCAGCAUUUAUAATT against Nmur2 -0.166
GGCCCUGAGAAGAAAACUATT against Syngr3 -0.118
CCCUGGCGAAUCAGAUUGCTT against Sohlh1 1.02
GCCAUUGUACCAUGAAGAGTT against Trappc12 -1.02
GCAACACCAGAGUAUGUUATT against Cldn34b3 0.794
CCCUACUAUUGACGAAAACTT against Hoxc12 0.345
GGCAUGUCUAAUGAACUCATT against Acly -0.502
GGCAUCCAUUCAAGAGAAUTT against Smpd4 -0.99
GGACUCACAGGUUGAAAUATT against Tex29 -0.797
GGGUUCAUAUGUUUUGGAUTT against C130050O18Rik 1.38
GGCUUUGCAGGAAUACAUGTT against Ccdc61 -1.12
CCGUUAUCUCUUGAAACAUTT against Kitl -0.304
GGUCUUGUUCUCAUCAACATT against Ndrg2 -0.0721
GGAAGUGCAAGUGACAAAGTT against Adat1 0.927
GGCAUACCGAAAGUUAGCCTT against Dnaja2 -0.724
GGCAGGUGACUCCAAAUGUTT against Hdc -0.862
GGAAUGAGCAUGUUAAAUGTT against Maoa -0.451
GCUAGAGUGUCAUGACUUUTT against Zbtb44 0.897
GGACCUCAAAAGCUAUUUUTT against Slco1a6 -1.62
GCGAUAAGCAGAAUGGCAGTT against 8030462N17Rik -0.9
GGAGGAGUAUGAAGAGCUGTT against Poc5 -0.0911
CCGAAACUGUUUGACCUCATT against Rasal1 -1.56
CCAGGAUAACCGUAUUAAUTT against Gm2a -1.02
GGAGGUAUUCACAAAGAGATT against Parp8 -0.248
CCUUCCAUGUCUAAAAUGGTT against Aldh4a1 -0.12
GGCUUGUGCAAAUCCCACATT against Ppp1r14a -0.991
GGGAUCUUAAUGAAGAAGATT against Cd7 -0.335
CCAGAGUAAUUCAUCAUACTT against Agxt 0.172
GCGACUGUUUAGCUUUUUCTT against Rilpl1 0.2
CGAGCAUGUGUUACAUUAUTT against Tnfaip8l1 0.778
GCAGGGUCAUAAUUGUUCUTT against Tpd52l1 0.0898
CCAUGCGUAUCCGUAUGACTT against Naa38 0.348
CCAACCAGUUGAGUUCCAGTT against Nefl 1.93
GGUUCAGACUGCAUCAGGCTT against Ncan -1.03
GGACAUCUGGUUAUGAAUGTT against B3galt6 -0.111
GGACGAAAUAACAGGCUAATT against Clec2d 1.83
GGAAACUGCUGAAAGGUUATT against Srbd1 0.611
GGGCAAGGAGACAGAAUUCTT against Fgf18 0.927
GGAGAUGGUCUCAUUAAGCTT against Psmd13 -1.25
GGUUAACUUCUGUUCCUGATT against Yipf4 1.28
GUCUGGAUAUUUGACACUATT against Tmem60 -0.637
GCCCUGAAUGUGAAUUUGUTT against Ass1 0.437
GGAAGACGAGUUCAUUGUGTT against Rassf2 0.3
GCUGCCGACCAUACUUUCCTT against Psme4 0.103
CGGAGCAUUGGGACAAUUUTT against Olfr690 1.1
UCUGAUCACACUGUUUGGATT against Olfr832 1.68
GGGAUUGAAAAGGUUAACCTT against Fam243 -0.838
GGAGCUGCUGAACUGUAGUTT against Leprotl1 0.407
GGCUUUAUGAGAGAGAUGATT against Cryga -0.465

An excerpt from further up, for reference:
z-score, inactive:
GGAAGUGCAAGUGACAAAGTT against Adat1 0.927
GGCAUACCGAAAGUUAGCCTT against Dnaja2 -0.724
GGCAGGUGACUCCAAAUGUTT against Hdc -0.862
GGAAUGAGCAUGUUAAAUGTT against Maoa -0.451

Following part.

z-score, active:
GGAAAUGCCAUAGUCCUAUTT against Mrgprb5 -2.54
